In the supplement of paper PMC10849652:
Some of the results follow.

Amino acid sequences for entries named in this document (tags omitted). A change or cut given only in a name is not applied to a line headed by its entry.
UniProt Q9Y530: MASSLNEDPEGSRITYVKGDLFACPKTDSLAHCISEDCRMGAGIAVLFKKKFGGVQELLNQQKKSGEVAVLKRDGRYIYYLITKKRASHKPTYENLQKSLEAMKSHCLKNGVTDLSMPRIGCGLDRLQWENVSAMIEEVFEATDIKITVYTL
UniProt P68402: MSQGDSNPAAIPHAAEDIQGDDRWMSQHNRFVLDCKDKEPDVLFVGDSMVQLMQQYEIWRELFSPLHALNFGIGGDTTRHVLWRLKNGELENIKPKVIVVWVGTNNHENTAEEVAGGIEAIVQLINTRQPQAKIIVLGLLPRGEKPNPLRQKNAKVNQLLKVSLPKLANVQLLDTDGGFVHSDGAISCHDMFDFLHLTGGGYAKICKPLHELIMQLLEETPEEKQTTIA
UniProt Q32P28: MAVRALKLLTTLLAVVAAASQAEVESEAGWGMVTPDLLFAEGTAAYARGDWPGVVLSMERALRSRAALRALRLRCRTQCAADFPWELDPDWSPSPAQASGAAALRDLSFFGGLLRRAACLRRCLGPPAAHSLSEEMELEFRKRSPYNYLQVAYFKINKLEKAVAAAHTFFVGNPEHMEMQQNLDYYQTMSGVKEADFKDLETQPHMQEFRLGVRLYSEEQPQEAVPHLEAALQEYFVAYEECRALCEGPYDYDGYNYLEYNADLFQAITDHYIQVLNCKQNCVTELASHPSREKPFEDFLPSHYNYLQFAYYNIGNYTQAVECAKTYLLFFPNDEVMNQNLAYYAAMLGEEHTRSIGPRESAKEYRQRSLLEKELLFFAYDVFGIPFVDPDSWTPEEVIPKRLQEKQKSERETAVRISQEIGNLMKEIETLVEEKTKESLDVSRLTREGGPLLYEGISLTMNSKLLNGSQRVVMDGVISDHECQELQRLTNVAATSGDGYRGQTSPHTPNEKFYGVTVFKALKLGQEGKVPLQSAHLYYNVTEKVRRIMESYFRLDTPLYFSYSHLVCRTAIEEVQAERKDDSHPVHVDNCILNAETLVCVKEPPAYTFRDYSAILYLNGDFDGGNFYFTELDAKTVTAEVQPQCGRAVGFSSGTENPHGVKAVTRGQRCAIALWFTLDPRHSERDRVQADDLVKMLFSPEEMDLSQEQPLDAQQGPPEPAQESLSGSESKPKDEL
UniProt Q9UNF0: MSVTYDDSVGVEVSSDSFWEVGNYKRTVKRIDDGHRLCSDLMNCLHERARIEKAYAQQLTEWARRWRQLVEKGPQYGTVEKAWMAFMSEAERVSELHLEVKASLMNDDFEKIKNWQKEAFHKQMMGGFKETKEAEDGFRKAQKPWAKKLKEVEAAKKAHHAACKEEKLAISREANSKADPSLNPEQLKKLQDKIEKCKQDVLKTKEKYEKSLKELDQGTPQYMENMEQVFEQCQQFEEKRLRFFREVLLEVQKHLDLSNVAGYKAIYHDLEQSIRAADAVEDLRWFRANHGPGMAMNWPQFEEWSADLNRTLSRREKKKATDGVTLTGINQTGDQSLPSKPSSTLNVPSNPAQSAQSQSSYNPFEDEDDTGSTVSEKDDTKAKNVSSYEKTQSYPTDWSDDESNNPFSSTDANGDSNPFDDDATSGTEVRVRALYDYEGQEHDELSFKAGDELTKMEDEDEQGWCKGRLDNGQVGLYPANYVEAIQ
UniProt Q9UQ80: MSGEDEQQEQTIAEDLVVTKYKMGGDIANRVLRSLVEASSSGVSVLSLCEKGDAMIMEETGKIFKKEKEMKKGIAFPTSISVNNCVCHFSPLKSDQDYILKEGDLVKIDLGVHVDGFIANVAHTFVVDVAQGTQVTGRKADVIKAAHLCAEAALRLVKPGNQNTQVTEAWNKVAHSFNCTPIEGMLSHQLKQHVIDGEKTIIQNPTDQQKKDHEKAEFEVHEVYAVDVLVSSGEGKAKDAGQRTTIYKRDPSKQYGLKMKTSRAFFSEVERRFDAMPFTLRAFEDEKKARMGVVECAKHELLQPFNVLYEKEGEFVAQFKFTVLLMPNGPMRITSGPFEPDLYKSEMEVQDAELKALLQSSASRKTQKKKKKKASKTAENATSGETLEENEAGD
UniProt Q13177, whole entry, looked up: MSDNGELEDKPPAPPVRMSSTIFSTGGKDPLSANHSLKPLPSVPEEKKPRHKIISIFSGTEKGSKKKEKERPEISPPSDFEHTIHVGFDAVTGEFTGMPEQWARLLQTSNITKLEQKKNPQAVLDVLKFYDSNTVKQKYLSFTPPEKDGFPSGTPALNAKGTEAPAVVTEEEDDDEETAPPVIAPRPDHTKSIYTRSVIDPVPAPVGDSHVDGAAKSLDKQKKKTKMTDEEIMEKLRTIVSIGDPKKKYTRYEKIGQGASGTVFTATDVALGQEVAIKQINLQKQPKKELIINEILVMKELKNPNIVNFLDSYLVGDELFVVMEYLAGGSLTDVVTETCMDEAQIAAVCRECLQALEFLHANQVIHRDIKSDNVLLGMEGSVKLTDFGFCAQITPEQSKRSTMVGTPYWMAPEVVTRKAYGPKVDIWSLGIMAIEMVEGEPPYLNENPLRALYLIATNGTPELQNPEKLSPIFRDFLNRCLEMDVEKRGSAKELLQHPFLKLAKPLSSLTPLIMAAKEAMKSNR
UniProt Q96E22: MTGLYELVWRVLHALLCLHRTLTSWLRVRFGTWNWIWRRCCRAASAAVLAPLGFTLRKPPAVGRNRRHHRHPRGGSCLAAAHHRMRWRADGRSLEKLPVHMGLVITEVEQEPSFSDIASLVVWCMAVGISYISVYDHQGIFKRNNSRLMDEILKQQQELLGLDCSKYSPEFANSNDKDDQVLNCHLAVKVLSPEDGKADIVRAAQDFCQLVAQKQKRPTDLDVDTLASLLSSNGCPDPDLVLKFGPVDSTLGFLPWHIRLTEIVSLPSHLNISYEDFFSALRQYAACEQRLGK
UniProt Q8N543: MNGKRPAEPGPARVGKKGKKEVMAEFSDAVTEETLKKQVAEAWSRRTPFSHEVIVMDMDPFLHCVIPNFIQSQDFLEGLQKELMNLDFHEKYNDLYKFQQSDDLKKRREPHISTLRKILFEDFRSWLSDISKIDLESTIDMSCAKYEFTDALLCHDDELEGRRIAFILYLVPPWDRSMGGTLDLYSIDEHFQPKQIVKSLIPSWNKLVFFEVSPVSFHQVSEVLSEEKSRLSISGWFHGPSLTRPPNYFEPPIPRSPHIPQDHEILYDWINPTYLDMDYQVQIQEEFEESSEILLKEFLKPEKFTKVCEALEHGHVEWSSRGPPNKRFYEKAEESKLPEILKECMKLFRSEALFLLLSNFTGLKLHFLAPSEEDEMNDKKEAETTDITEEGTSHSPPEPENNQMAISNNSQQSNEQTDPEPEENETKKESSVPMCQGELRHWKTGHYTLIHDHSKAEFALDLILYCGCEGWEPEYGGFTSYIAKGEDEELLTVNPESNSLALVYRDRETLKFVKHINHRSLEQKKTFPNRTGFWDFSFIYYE
UniProt Q86U42: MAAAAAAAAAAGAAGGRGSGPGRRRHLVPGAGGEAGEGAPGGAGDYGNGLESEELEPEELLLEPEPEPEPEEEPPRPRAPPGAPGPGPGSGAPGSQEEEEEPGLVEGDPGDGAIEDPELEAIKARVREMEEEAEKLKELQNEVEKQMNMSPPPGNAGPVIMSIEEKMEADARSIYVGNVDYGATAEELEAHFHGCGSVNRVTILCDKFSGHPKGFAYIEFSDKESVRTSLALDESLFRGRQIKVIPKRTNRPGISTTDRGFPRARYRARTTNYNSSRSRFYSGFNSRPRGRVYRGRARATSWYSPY
UniProt Q9BPZ3: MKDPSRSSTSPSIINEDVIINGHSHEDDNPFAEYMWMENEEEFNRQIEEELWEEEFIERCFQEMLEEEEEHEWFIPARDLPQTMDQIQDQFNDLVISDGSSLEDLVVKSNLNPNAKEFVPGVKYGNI
UniProt Q9H4B0: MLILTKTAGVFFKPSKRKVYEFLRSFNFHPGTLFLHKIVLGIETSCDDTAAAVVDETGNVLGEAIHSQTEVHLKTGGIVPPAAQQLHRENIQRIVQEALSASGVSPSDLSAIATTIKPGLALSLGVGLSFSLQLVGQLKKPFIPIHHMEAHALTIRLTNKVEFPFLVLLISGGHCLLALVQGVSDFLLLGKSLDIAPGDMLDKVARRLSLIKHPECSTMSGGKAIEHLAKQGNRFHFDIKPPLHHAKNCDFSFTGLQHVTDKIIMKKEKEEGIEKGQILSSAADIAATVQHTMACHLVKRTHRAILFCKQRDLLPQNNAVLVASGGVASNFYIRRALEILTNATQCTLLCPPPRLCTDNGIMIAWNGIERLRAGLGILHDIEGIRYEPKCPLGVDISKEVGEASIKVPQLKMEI
UniProt P11940, whole entry, looked up: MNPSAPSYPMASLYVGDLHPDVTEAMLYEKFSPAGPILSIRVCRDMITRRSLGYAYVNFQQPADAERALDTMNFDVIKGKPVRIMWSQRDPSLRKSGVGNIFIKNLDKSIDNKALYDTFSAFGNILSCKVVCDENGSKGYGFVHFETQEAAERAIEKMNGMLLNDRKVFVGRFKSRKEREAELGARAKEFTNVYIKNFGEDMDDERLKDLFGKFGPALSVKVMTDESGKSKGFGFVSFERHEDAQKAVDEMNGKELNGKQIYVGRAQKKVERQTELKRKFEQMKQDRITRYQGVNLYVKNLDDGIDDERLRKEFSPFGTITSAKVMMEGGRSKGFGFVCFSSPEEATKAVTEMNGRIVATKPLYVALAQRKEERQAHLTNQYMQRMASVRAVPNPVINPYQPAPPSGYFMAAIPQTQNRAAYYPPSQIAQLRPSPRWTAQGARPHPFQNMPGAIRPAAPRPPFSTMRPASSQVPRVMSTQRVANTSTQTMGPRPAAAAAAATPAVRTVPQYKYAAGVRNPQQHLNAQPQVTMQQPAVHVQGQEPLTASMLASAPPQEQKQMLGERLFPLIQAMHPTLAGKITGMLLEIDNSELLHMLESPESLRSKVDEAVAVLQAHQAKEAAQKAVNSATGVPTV
UniProt Q9H8K7: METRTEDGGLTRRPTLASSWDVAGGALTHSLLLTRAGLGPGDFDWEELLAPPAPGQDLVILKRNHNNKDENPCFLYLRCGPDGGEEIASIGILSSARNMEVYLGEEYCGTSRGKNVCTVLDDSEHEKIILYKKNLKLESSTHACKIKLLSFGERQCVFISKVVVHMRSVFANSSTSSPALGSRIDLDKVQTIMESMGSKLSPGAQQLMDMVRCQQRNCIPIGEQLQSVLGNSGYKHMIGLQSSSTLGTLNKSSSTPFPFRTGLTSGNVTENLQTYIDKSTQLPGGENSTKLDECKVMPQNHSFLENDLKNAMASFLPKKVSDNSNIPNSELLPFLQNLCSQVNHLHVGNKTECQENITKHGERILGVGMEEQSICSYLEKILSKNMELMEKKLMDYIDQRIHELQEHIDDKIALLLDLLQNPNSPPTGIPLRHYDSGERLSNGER
UniProt P47900: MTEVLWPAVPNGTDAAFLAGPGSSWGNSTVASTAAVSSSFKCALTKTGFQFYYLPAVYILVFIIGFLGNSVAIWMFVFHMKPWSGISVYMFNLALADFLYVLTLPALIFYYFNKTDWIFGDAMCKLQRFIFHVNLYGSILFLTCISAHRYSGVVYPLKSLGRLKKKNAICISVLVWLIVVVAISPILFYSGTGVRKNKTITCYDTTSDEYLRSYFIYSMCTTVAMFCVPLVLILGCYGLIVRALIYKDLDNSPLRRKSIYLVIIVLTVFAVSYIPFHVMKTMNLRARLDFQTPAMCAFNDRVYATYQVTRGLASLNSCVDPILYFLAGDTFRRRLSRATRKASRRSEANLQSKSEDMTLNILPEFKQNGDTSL
UniProt Q9H999: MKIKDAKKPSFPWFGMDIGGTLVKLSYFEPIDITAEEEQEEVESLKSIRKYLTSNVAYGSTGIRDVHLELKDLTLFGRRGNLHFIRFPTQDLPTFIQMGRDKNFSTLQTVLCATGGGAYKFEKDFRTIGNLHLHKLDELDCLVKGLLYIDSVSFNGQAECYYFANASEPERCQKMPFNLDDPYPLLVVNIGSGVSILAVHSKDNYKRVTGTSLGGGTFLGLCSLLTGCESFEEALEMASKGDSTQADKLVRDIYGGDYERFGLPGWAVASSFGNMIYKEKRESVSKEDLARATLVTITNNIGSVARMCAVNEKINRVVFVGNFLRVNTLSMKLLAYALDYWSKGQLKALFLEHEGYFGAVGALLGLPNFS
UniProt Q96RD7, whole entry, looked up: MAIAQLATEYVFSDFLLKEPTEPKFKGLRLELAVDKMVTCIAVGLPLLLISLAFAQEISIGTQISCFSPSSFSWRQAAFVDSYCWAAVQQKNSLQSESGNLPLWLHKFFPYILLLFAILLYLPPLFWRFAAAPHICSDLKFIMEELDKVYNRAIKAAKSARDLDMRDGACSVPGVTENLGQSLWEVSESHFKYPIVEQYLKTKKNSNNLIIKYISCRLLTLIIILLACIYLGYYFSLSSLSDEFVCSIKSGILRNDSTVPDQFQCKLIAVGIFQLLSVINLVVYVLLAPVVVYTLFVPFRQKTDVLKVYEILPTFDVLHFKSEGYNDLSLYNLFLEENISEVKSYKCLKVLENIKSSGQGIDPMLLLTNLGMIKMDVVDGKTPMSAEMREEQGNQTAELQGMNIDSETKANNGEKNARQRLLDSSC
UniProt Q9UKK6: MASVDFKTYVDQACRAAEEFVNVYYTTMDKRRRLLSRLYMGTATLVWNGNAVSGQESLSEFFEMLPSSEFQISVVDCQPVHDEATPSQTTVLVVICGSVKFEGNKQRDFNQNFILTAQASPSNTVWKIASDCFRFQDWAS

Assays:
Assay in all cases: log2 fold change, soluble protein after heating vs DMSO (PISA); higher = thermal stabilisation; K562 lysate, 10 uM; active = over 0.2 and 3.5 SD of the protein, either way, in both replicates (recomputed)
[1] = compound: C=CC(=O)N1CCC[C@@H](n2nc(-c3ccc(Oc4ccccc4)cc3)c3c(N)ncnc32)C1 [ibrutinib]
Outline: (§1)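 To prepare the extract, K562 pellets were dounce-homogenised in PBS pH 7.4 with 1 mM MgCl2, giving crude material at 1 mg/mL protein. This was treated with 10 μM compound for 30 min, then heated in aliquots for 3 min over 48°C-58°C before pooling and addition of NP-40 to 0.5% at 4°C. Centrifugation at 21,000xg for 90 min left soluble protein in the supernatant, which TMTpro 16plex LC-MS/MS quantified with equalised channel sums. Results are log-two fold changes in thermal stability compared with solvent controls, from duplicates.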

[2] = compound: CC(=O)c1cnc2ccc(-c3cc(Cl)c(O)c(Cl)c3)nc2c1N[C@H]1CC[C@H](CN(C)C)CC1
Outline: as §1

[3] = compound: CC(C)(C)Cn1c(N)nc2ccc(-c3[nH]c(C(C)(C)C)nc3-c3ccc(F)cc3)nc21 [ralimetinib]
Outline: as §1

[4] = compound: CC(C)(O)CC(=O)NCCn1ccc2ncnc(Nc3ccc(Oc4cccc(C(F)(F)F)c4)c(Cl)c3)c21
Outline: as §1

[5] = compound: CC(C)C1=C2N=C(C=C(N2N=C1)NCC3=CC=CC=C3)NCCCCCCN
Outline: as §1

[6] = compound: CC1=C(C(CC(=O)N1)C2=CC=C(C=C2)C(F)(F)F)C(=O)NC3=C(C=C4C(=C3)C=NN4)F
Outline: as §1

[7] = compound: CC1=C(C2=C(C=C1)C(=O)C3=CC=CC=C3N2CCCN)C
Outline: as §1

[8] = compound: CC1=C(C=C(C=C1)NC(=O)C2=CC(=CC=C2)C(C)(C)C#N)NC3=CC4=C(C=C3)N=CN(C4=O)C
Outline: as §1

[9] = compound: CC1=C(C=C(C=C1)NC(=O)C2=CC(=CC=C2)N(C)C)NC(=O)C3=CC=C(C=C3)O
Outline: as §1

[10] = compound: CC1=CC=C(C=C1)SC2=C3C=C(SC3=CN=C2)C(=O)N
Outline: as §1

Measured: log2 fold change

OARD1 (UniProt Q9Y530)
inactive: [1] -0.013 | [2] 0.003 | [3] 0.003 | [4] 0.002 | [5] -0.01 | [6] -0.027 | [7] -0.046 | [8] 0.032 | [9] 0.035 | [10] 0.011

P4HB (UniProt P07237)
inactive: [1] -0.015 | [2] 0.007 | [3] -0.009 | [4] 0.034 | [5] 0.006 | [6] -0.023 | [7] 0.017 | [8] -0.027 | [9] -0.012 | [10] 0.004

PAK1IP1 (UniProt Q9NWT1)
inactive: [1] 0.008 | [2] -0.01 | [3] 0.005 | [4] -0.009 | [5] -0.003 | [6] 0 | [7] -0.009 | [8] -0.023 | [9] -0.008 | [10] -0.006

PAFAH1B2 (UniProt P68402)
inactive: [1] -0.006 | [2] -0.064 | [3] -0.013 | [4] -0.071 | [5] -0.031 | [6] -0.012 | [7] -0.018 | [8] 0.032 | [9] 0.02 | [10] -0.026

P3H1 (UniProt Q32P28)
inactive: [1] -0.002 | [2] -0.006 | [3] 0.024 | [4] -0.004 | [5] -0.01 | [6] 0.021 | [7] -0.007 | [8] -0.03 | [9] -0.027 | [10] -0.003

OXNAD1 (UniProt Q96HP4)
inactive: [1] -0.026 | [2] -0.007 | [3] 0.05 | [4] 0.05 | [5] 0.006 | [6] 0.003 | [7] -0.021 | [8] 0.032 | [9] 0.001 | [10] 0.028

Looked up one by one from above (2):
PAFAH1B2 (UniProt P68402)
inactive: [1] -0.006 | [2] -0.064 | [3] -0.013 | [4] -0.071 | [5] -0.031 | [6] -0.012 | [7] -0.018 | [8] 0.032 | [9] 0.02 | [10] -0.026

OXNAD1 (UniProt Q96HP4)
inactive: [1] -0.026 | [2] -0.007 | [3] 0.05 | [4] 0.05 | [5] 0.006 | [6] 0.003 | [7] -0.021 | [8] 0.032 | [9] 0.001 | [10] 0.028

Remaining list, next part:

PACSIN2 (UniProt Q9UNF0)
inactive: [1] -0.023 | [2] 0.012 | [3] 0 | [4] 0.002 | [5] -0.012 | [6] -0.003 | [7] 0.011 | [8] -0.012 | [9] 0.004 | [10] 0.003

PAK1 (UniProt Q13153)
inactive: [1] 0.067 | [2] -0.011 | [3] 0.001 | [4] 0.004 | [5] -0.108 | [6] -0.003 | [7] -0.018 | [8] 0.041 | [9] 0.008 | [10] 0.009

PA2G4 (UniProt Q9UQ80)
inactive: [1] -0.008 | [2] -0.002 | [3] 0.004 | [4] 0.005 | [5] 0.01 | [6] -0.02 | [7] -0.009 | [8] -0.017 | [9] 0.002 | [10] 0.017

PAK2 (UniProt Q13177)
inactive: [1] -0.007 | [2] -0.001 | [3] -0.033 | [4] 0.012 | [5] -0.003 | [6] -0.026 | [7] -0.004 | [8] -0.01 | [9] -0.006 | [10] 0.002

NUS1 (UniProt Q96E22)
inactive: [1] 0.023 | [2] -0.035 | [3] 0 | [4] -0.014 | [5] 0.03 | [6] 0.029 | [7] 0.048 | [8] -0.06 | [9] 0.003 | [10] 0.007

PACC1 (UniProt Q9H813)
inactive: [1] 0.145 | [2] 0.068 | [3] -0.081 | [4] -0.081 | [5] -0.163 | [6] -0.058 | [7] -0.038 | [8] -0.118 | [9] -0.044 | [10] -0.086

OGFOD1 (UniProt Q8N543)
inactive: [1] 0.01 | [2] 0.004 | [3] -0.008 | [4] -0.049 | [5] -0.052 | [6] -0.036 | [7] 0.002 | [8] -0.038 | [9] 0.021 | [10] -0.003

PABPN1 (UniProt Q86U42)
inactive: [1] 0.088 | [2] -0.085 | [3] 0.089 | [4] -0.045 | [6] 0.08 | [7] -0.083 | [8] 0.002 | [9] 0 | [10] 0.047

NUP98 (UniProt P52948)
inactive: [1] -0.01 | [2] 0.047 | [3] 0.047 | [4] 0.022 | [5] -0.037 | [6] 0.034 | [7] 0.029 | [8] -0.022 | [9] 0.008 | [10] -0.017

P4HA2 (UniProt O15460)
inactive: [1] -0.028 | [2] -0.059 | [3] 0.08 | [4] 0.024 | [5] -0.023 | [7] -0.001 | [8] -0.038 | [9] -0.009 | [10] -0.062

OPHN1 (UniProt O60890)
inactive: [1] 0.056 | [2] -0.012 | [3] -0.175 | [4] -0.022 | [7] 0.024 | [9] 0.285 | [10] -0.093

OCIAD1 (UniProt D6RF01)
inactive: [1] 0.523 | [2] -0.047 | [6] 0.295 | [10] 0.043

PAIP2 (UniProt Q9BPZ3)
inactive: [1] 0.145 | [2] 0.012 | [3] -0.05 | [4] -0.006 | [5] 0.006 | [6] 0.015 | [7] 0.028 | [8] 0.01 | [9] -0.003 | [10] -0.008

OSGEPL1 (UniProt Q9H4B0)
inactive: [1] -0.074 | [2] -0.057 | [8] 0.04 | [10] 0.124

PABPC1 (UniProt P11940)
inactive: [1] -0.002 | [2] 0.004 | [3] -0.014 | [4] 0.002 | [5] -0.015 | [6] -0.028 | [7] 0.022 | [8] -0.054 | [9] 0.009 | [10] 0.024

OMA1 (UniProt Q96E52)
inactive: [1] 0.023 | [2] 0.026 | [3] -0.026 | [4] -0.04 | [5] 0.004 | [6] -0.066 | [7] 0.004 | [8] 0.033 | [9] 0.023 | [10] 0.024

PAAT (UniProt Q9H8K7)
inactive: [1] -0.011 | [2] -0.047 | [3] -0.064 | [4] -0.01 | [5] -0.062 | [7] 0.01 | [8] 0.059 | [9] 0.04 | [10] -0.077

NUP210 (UniProt Q8TEM1)
inactive: [1] -0.029 | [2] -0.01 | [3] -0.011 | [4] -0.075 | [5] -0.005 | [6] 0.024 | [7] -0.017 | [8] -0.005 | [9] -0.027 | [10] -0.012

P2RY1 (UniProt P47900)
inactive: [1] -0.026 | [2] 0.102 | [3] -0.045 | [4] -0.107 | [5] -0.322 | [7] 0.064 | [9] -0.009 | [10] 0.058

OTUD7B (UniProt Q6GQQ9)
active: [8] 0.239
inactive: [1] -0.008 | [2] 0.004 | [3] 0.026 | [4] 0.005 | [5] -0.034 | [6] -0.011 | [7] -0.019 | [9] 0 | [10] 0.047

PANK3 (UniProt Q9H999)
inactive: [1] 0.162 | [2] -0.168 | [3] 0.139 | [4] -0.068 | [5] -0.075 | [6] 0.01 | [7] -0.174 | [9] -0.09 | [10] -0.079

PARD3 (UniProt Q8TEW0)
inactive: [1] 0.026 | [2] 0.134 | [3] -0.017 | [4] -0.011 | [5] 0.001 | [6] 0.011 | [7] 0.006 | [8] 0.116 | [9] 0.01 | [10] -0.068

PAICS (UniProt E9PBS1)
inactive: [1] -0.067 | [2] -0.053 | [3] 0.178 | [4] -0.003 | [5] -0.133 | [6] -0.064 | [7] -0.267 | [8] 0.09 | [9] -0.227 | [10] -0.033

PANX1 (UniProt Q96RD7)
inactive: [1] 0.033 | [2] 0 | [3] 0.025 | [4] -0.015 | [5] -0.052 | [6] -0.07 | [7] 0.006 | [8] -0.03 | [9] 0.025 | [10] -0.033

PAPSS1 (UniProt O43252)
inactive: [1] 0.021 | [2] 0.001 | [3] 0.008 | [4] 0.005 | [5] -0.008 | [6] -0.022 | [7] -0.002 | [8] 0.005 | [9] -0.015 | [10] -0.007

NXT1 (UniProt Q9UKK6)
inactive: [1] -0.001 | [2] -0.059 | [3] 0.005 | [4] -0.114 | [5] 0.027 | [6] 0.075 | [9] 0.04 | [10] -0.107

ORAI1 (UniProt Q96D31)
inactive: [1] -0.067 | [2] -0.029 | [3] -0.086 | [4] -0.043 | [5] -0.059 | [6] 0.056 | [8] -0.001 | [9] -0.005 | [10] 0.082
